From PubChem BioAssay AID2551 (National Center for Advancing Translational Sciences (NCATS), 2010)
“And” between values parts separate entries of the source, which are not always exact repeats. Equal values may be shown once. Screen size: about 310,000 compounds; about 17,000 (5.5%) were called active. Inconclusive means that the source gave no clear call. Such entries were picked first, then a sample of the others. Calls come from the whole dose curve; as a rule, active = well fitted inhibition curve with a large enough effect; inconclusive = small, poorly fitted or top-dose-only effect, or effect the other way; inactive = no such curve, though single readings can be large or run the other way. Where the call is inconclusive, the potency comes from a doubtful curve fit.

Sequences of proteins named here, by UniProt entry; tags and fusion partners are left off. A change or cut given only in a name is not applied to a line headed by its entry.
UniProt P51450: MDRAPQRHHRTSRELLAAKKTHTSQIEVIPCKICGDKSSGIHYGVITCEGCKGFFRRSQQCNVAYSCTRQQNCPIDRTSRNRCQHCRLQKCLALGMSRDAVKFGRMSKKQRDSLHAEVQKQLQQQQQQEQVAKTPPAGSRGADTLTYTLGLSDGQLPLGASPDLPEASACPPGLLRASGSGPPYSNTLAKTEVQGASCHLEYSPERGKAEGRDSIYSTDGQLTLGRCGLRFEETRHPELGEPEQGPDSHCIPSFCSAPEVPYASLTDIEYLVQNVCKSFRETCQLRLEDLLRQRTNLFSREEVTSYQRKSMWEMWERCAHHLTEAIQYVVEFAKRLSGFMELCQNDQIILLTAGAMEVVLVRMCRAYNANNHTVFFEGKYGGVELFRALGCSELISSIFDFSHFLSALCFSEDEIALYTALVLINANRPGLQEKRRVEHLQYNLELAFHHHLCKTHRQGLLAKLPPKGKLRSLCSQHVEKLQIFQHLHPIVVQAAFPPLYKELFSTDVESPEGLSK

biological target: Nuclear receptor ROR-gamma (Mus musculus) (UniProt P51450); assay: qHTS for inhibitors of ROR gamma transcriptional activity; conditions: Drosophila S2 Gal4-RORgamma UAS-luciferase reporter, 20 h; activity change, negative = inhibition: at 53.6 µM (top of the series); note: nearly all actives have a fitted effect of over 60% in size
How it was run: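 Luciferase reporter read in Schneider cells carrying Gal4-RORγ (mouse) and UAS-Photinus luciferase; cells given compound 1 h before 700 uM copper sulfate induction, then incubated 20 h at ambient temperature.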
% is set by controls: 0 for no effect and ±100 for the full control effect; potency is the fitted concentration of half-maximal effect.

Potency, inconclusive:
Cc1cccc(NC(=O)c2cc(S(=O)(=O)N3CCc4ccccc43)cn2C)c1C 35.5 µM [inhibitor, single point], Cc1cc(C)nc(SCNC(=O)c2ccc(F)cc2)n1 15.8 µM [inhibitor, single point], COc1cc(NS(=O)(=O)c2ccccc2)ccc1-n1nc(C)cc1C 10 µM [activator, partial curve, poor fit], CCNC(=S)NS(=O)(=O)c1ccccc1 11.2 µM [inhibitor, single point], CN1CCN(c2ccc(NC(=O)c3ccc(Br)o3)cc2)CC1 15.8 µM [inhibitor, single point], O=S(=O)(Nc1nc2ccccc2nc1NCC1CCCO1)c1cccc(Cl)c1 (configuration not stated) 28.2 µM [activator, single point], O=c1[nH]n(-c2ccc(Cl)cc2)c2ncccc12 12.6 µM [activator, single point], CCN=C1Sc2nc3ccc(OCC)cc3cc2CN1CCOC 25.1 µM [inhibitor, single point], Cc1ccc(S(C)(=O)=O)cc1S(=O)(=O)Nc1cccc(Cl)c1 35.5 µM [activator, single point], Cc1cccc(C(=O)NNC(=O)c2cc3cc4ccccc4nc3s2)c1 35.5 µM [inhibitor, single point], O=C1CCCN1CCC1CCN(C2CC(=O)N(c3ccc(F)cc3)C2=O)CC1 (configuration not stated) 22.4 µM [inhibitor, single point], COc1ccc(OC)c(C2C=C(c3ccc(C)c(C)c3)Nc3nnnn32)c1 (configuration not stated) 14.1 µM [activator, single point], C[C@@H]1CC[C@H]2C(=O)N3[C@@H](CC[C@@H](C)[C@@H]3c3ccc(Br)cc3)C(=O)N2[C@H]1c1ccc(Br)cc1 22.4 µM [activator, single point], COc1ccc(-c2nc(C)c(C(C)=O)n2O)cc1OC 22.4 µM [activator, single point], Cc1nn(C(C)C(=O)NNC(=S)Nc2ccc(F)cc2)c(C)c1[N+](=O)[O-] (configuration not stated) 11.2 µM [inhibitor, single point], COC(=O)[C@@]1(Cc2ccc(F)cc2)[C@H]2c3cc(C(=O)N(C)C)n(Cc4ccc(S(C)(=O)=O)cc4)c3C[C@H]2CN1C(=O)c1ccccc1 25.1 µM [activator, single point], COCC1CCCCN1C(=O)c1cccc(OC2CCN(C(=O)C3CC3)CC2)c1 (configuration not stated) 6.31 µM [activator, full curve], CCOc1ccccc1-c1nnc2n1N=C(c1cc(OC)cc(OC)c1)CS2 15.8 µM [activator, single point], O=C(c1ccc(S(=O)(=O)c2cccc(Cl)c2)c([N+](=O)[O-])c1)N1CCN(c2ccccn2)CC1 35.5 µM [inhibitor, single point], COc1ccc(S(=O)(=O)CCC(=O)Nc2ccc(OC)cc2OC)cc1 3.55 µM [activator, partial curve], NNC(=O)c1ccc(-c2ccccc2F)cc1 10 µM [inhibitor, partial curve], O=S(=O)(Nc1ccc(N2CCCCC2)cc1)c1ccccc1F 11.2 µM [activator, single point], COc1ccccc1-c1cc(C(=O)N2CCc3ccccc3C2)c2ccccc2n1 35.5 µM [activator, single point], O=C(c1ccc(COc2ccc(Cl)cc2)cc1)N1CCCCC1 14.1 µM [activator, single point], Cc1occc1C(=O)N/N=C/c1c[nH]c2ccccc12 22.4 µM [inhibitor, single point], CCCOC(=O)c1ccc(NC(=O)C(=O)NCC2CCCO2)cc1 (configuration not stated) 0.0794 µM [activator, full curve, poor fit], COc1ccccc1Nc1nc(N)nc(CN2CCC(C)CC2)n1 14.1 µM [inhibitor, partial curve], CCn1c(=O)cc(OCC(=O)Nc2cc(C)ccn2)c2ccccc21 35.5 µM [activator, single point], O=C(CCc1ccc(O)cc1)NNC(=S)NCCc1ccccc1 35.5 µM [inhibitor, single point], Cc1ccc2c(CC(=O)NCc3cccs3)coc2c1 12.6 µM [activator, single point], COc1ccc(NC(=O)CN(C)S(=O)(=O)c2ccc(Br)s2)cc1 14.1 µM [activator, partial curve], COc1ccc(NC(=O)c2ccc(NC(=O)CCS(=O)(=O)c3cccs3)cc2)cc1 11.2 µM [activator, partial curve], COc1ccc(CCNc2oc(COc3ccccc3F)nc2C#N)cc1OC 14.1 µM [activator, partial curve], Cc1ccc(Oc2cc(NC(=O)CCCn3nc([N+](=O)[O-])c(Cl)c3C)cc([N+](=O)[O-])c2)cc1 6.31 µM [activator, full curve, poor fit], O=C(NC1CCCc2ccccc21)C1CCN(S(=O)(=O)c2cccc(C(F)(F)F)c2)CC1 (configuration not stated) 3.55 µM [activator, single point]

Potency, active:
CC(=O)c1c(N)[nH]c(-c2ccccc2)nc1=S 0.316 µM, CN(CC(=O)Nc1ccccc1Cl)C(=O)COC(=O)Cc1c(F)cccc1Cl 10 µM, Cc1cccc(Oc2nc(-c3ccccn3)nc3ccccc23)c1 0.562 µM, Cc1ccc(OCc2n[nH]c(=S)n2N)cc1C 7.94 µM, Cc1ccc2c(Br)cc(Br)c(O)c2n1 0.251 µM, CCOc1cc(-c2nccc3cc(OC)c(OC)cc23)cc(OCC)c1OCC 12.6 µM and 8.91 µM, CCCn1c(CC)nc([N+](=O)[O-])c1S(=O)(=O)c1ccccc1 7.94 µM, CCOC(=O)C1=C(c2ccccc2)NC(=S)NC1c1ccc(Cl)cc1 (configuration not stated) 7.94 µM, CC(C)c1nc(SCC(=O)c2ccc(F)cc2)c2ccccc2n1 5.62 µM, Cc1cccc(-n2cc[nH]c2=S)c1 7.94 µM, CCc1ccccc1NC(=S)NCCSc1ccc(Cl)cc1 1.12 µM, Cc1cccc(C)c1OCCCCc1c(C)n[nH]c1C 17.8 µM, CC(/C=C/c1ccc(N(C)C)cc1)=N\N=C1\NC(=O)CC(C(=O)Nc2ccccc2)S1 (configuration not stated) 2.24 µM, CC(=O)c1ccc(N=Nc2ccc(C)cc2)cc1 10 µM, C[C@H]1[C@H](C)CC[C@]2(C(=O)O)CC[C@]3(C)C(=CCC4[C@@]5(C)C[C@@H](O)[C@H](O)[C@@](C)(CO)[C@@H]5CC[C@]43C)[C@H]12 (some centres not stated) 11.2 µM, CCc1c(C)[nH]n(-c2nc(-c3cccc([N+](=O)[O-])c3)cs2)c1=O 10 µM

Activity change, negative = inhibition, inactive:
S=C1NC(c2ccccc2)N2C(=S)NC(c3ccccc3)N12 (configuration not stated) -20.1%, Cc1cccc2sc(NC(=O)c3cccc(S(=O)(=O)N4CCc5ccccc54)c3)nc12 -4.77%, Cc1ccc(NC(=O)COc2ccccc2C(=O)NCCN(C)C)cc1 4.49%, Cc1cccc(N(CC(=O)NCC2CCCO2)C(=O)CNS(=O)(=O)c2ccc(Cl)cc2)c1 (configuration not stated) 7.14%, CN1C(=O)S/C(=C\c2ccc(-n3cncn3)cc2)C1=O 14.7%, CCCS(=O)(=O)c1c(S(=O)(=O)CCC)c2c(N)cccn2c1C(=O)c1ccc(F)cc1 9%, COc1ccc(C2C(C(=O)N3CCCC3)c3cc(OC)c(OC)cc3C(=O)N2C)cc1 (configuration not stated) 3.54%, CC[C@H](C)[C@H](NC(=O)[C@H](Cc1ccc(O)cc1)NC(=O)[C@@H](NC(=O)[C@H](CCCN=C(N)N)NC(=O)[C@@H](N)CC(=O)O)C(C)C)C(=O)N[C@@H](Cc1ccc(N)cc1)C(=O)N1CCC[C@H]1C(=O)N[C@@H](Cc1ccccc1)C(=O)O -18.4%, COc1ccc(C(=O)/C=C/C(=O)N(Cc2ccccc2OC)C(C(=O)NC2CCCCC2)c2ccncc2)c(O)c1 (configuration not stated) 4.02% [at 10 µM], Cc1ccc(F)cc1NC(=O)N1CCNC(=O)C1CC(=O)Nc1cc(Cl)ccc1Cl (configuration not stated) 2.75%, Cn1c(NCc2ccco2)nc2c1c(=O)n(Cc1ccc(Cl)cc1Cl)c(=O)n2C -9.43%, CC1CC(C)CN(S(=O)(=O)c2ccc3c(c2)CC(C)N3C(=O)C2CC2)C1 (configuration not stated) 12.2%, O=C(CSc1nnc(NC(=O)c2ccccc2Cl)s1)Nc1ccc2c(c1)oc1ccccc12 -23%, O=C(Nc1ccc(S(=O)(=O)Nc2nccs2)cc1)/C(=C/c1ccccc1Cl)NC(=O)c1ccccc1 -0.346%, O=S(=O)(c1ccccc1)c1nc(-c2cccc(Cl)c2)oc1N1CCOCC1 18.1%, Cc1cc(=O)n2[nH]c(-c3ccccc3)cc2n1 -7.04%, O=C(NCc1ccccn1)Nc1cccc(Cl)c1Cl 10.2%, COc1ccc(/C=C/C(=O)c2ccc(Cl)s2)cc1O -18.9%, COc1ccccc1NC(=O)CSCc1ccc([N+](=O)[O-])cc1 7.72%, CN(CCc1ccccn1)C(=O)CCC1CCCN(C(=O)c2ccsc2)C1 (configuration not stated) 6.6%, O=c1c(-c2cc(F)cc(F)c2)nc2cnc(N3CCNCC3)nc2n1CCc1ccccc1 1.26%
